Source: publication PMC7861556
Results are given in words; binding and its absence hold for the method and conditions named. In cells and extracts the contact can be indirect. Some entries that bind do so weakly or less than the wild type.

Sequences of proteins named here, by UniProt entry; tags and fusion partners are left off.
UniProt Q8CIN4: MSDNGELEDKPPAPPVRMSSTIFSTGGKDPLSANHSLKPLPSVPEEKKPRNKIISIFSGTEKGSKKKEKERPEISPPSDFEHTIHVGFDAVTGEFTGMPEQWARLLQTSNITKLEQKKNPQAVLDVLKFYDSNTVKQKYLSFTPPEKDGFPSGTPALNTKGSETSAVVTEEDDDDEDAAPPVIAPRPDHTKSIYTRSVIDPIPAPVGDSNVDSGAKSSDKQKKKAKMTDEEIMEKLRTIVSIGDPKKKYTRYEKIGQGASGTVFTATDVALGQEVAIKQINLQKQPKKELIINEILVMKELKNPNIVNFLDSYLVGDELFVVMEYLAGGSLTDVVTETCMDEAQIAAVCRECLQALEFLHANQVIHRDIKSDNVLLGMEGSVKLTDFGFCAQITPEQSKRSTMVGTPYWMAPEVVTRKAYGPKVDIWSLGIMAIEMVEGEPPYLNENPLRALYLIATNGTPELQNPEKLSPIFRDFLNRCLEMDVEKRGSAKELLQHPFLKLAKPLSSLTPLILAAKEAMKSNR

Target: Serine/threonine-protein kinase PAK2 (mouse (endogenous in Neuro2A)) (UniProt Q8CIN4)
Experiment: co-IP; PAK2 immunoprecipitated with anti-PAK2 antibody-conjugated beads from lysates of Neuro2A cells treated without or with PQA-18 in the absence or presence of anti-IL-31Rα antibody; blotted with anti-α-PIX and anti-PAK2 antibodies

binding: binds
B1: Rho guanine nucleotide exchange factor 6 α-PIX (protein, UniProt Q8K4I3 1-771)
chain: MNPEERLVTWLISLGVLESPKKTVCDPEEFLKSSLKNGVVLCKLINRLLPGSVEKYCLEPQTEADCIDNINDFLKGCATLQVEVFEPDDLYSGANFSKVLNTLLAVNKATEDQLSERPCGRSSSLSAATSSQTNPQVAVPSTAPEQHSEEKAEMTENGSHQLIVKARFNFKQTNEDELSVCKGDIIYVTRVEEGGWWEGTLNGRTGWFPSNYVREIKPSERPLSPKAIKGFDTAPLTKNYYTVVLQNILDTEKEYAKELQSLLVTYLRPLQSNNNLSTVEFTCLLGNFEEVCTFQQTLCQALEECSKFPENQHKVGGCLLNLMPHFKSMYLAYCANHPSAVNVLTQHSDDLERFMENQGASSPGILILTTSLSKPFMRLEKYVTLLQELERHMEDTHPDHQDILKAIIAFKTLMGQCQDLRKRKQLELQILSEPIQAWEGDDIKTLGNVIFMSQVVMQHGACEEKEERYFLLFSSVLIMLSASPRMSGFMYQGKIPIAGMVVNRLDEIEGSDCMFEITGSTVERIVVHCNNNQDFQEWMEQLNRLTKGPTSCGSLSKTSSSSCSTHSSFSSTGQPRGPLEPPQIIKPWSLSCLRPAPPLRPSAALGYKERMSYILKESSKSPKTMKKFLHKRKTERKASEEEYVIRKSTAALEEDAQILKVIEAYCTSASFQQGTRKDSVPQVLLPEEEKLIIEETRSNGQTIIEEKSLVDTVYALKDEVKELKQENKKMKQCLEEELKSRKDLEKLVRKLLKQTDECIRSESSSKTSILQ
